Results deposited as PubChem BioAssay AID493246 (Drosophila RNAi Screening Center, 2011)
In all, the deposit lists about 21,000 reagents; this is an unselected part of those with a known target gene and a result. Of all reagents, 429 (2%) were called active. 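Values are raw and not normalised between plates; calls rest on per-plate z-scores that were not deposited.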 The numbers tell different reagents against one gene apart. Names joined by + are all predicted targets of the reagent. Not given: the amount of reagent, the time to read-out.

- Screen: 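Genome-wide search for dsRNAs that reduce cell number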 (primary screen)
- Cell system: Drosophila Kc and S2R+ cells
- Knock-down reagent: long dsRNA against Drosophila genes
- Read-out: 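Raw, unnormalised count of remaining cells in each well; per-plate z-scores of cell number underlie the calls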
- Reading the numbers: Kc cell number and S2R+ cell number: higher = more cells remaining
- Hit rule: 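Active when the per-plate z-score of cell number is 3 or more in the direction of fewer cells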

| gene | reagent | Kc cell number, rep 1 | Kc cell number, rep 2 | S2R+ cell number, rep 1 | S2R+ cell number, rep 2 | Outcome |
| --- | --- | --- | --- | --- | --- | --- |
| Ssdp (Sequence-specific single-stranded DNA-binding protein) | 1 | 1.40e6 | 1.39e6 | 9.66e5 | 1.00e6 | inactive |
| LeuRS (Leucyl-tRNA synthetase) | 1 | 1.65e6 | 1.70e6 | 1.17e6 | 1.39e6 | inactive |
| CG30109 + CG30108 | 1 | 5.47e5 | – | 7.98e5 | – | inactive |
| Ance-3 | 1 | 1.66e6 | 1.70e6 | 1.33e6 | 1.51e6 | inactive |
| Ance-3 | 2 | 1.56e6 | 1.67e6 | 1.23e6 | 1.42e6 | inactive |
| CG14694 | 1 | 1.39e6 | 1.40e6 | 1.33e6 | 1.44e6 | inactive |
| CG13185 | 1 | 1.39e6 | 1.53e6 | 9.43e5 | 9.66e5 | inactive |
| Irbp18 (Inverted repeat binding protein 18 kDa) | 1 | 1.39e6 | 1.48e6 | 1.32e6 | 1.46e6 | inactive |
| loco (locomotion defects) | 1 | 1.56e6 | 1.55e6 | 1.02e6 | 1.12e6 | inactive |
| loco (locomotion defects) | 2 | 1.50e6 | 1.55e6 | 1.27e6 | 1.29e6 | inactive |
| Frq2 (Frequenin 2) | 1 | 1.45e6 | 1.44e6 | 1.03e6 | 1.15e6 | inactive |
| CG7997 | 1 | 1.42e6 | 1.46e6 | 1.10e6 | 1.14e6 | inactive |
| olf413 | 1 | 1.61e6 | 1.67e6 | 1.12e6 | 1.26e6 | inactive |
| olf413 | 2 | 1.42e6 | 1.38e6 | 1.00e6 | 1.20e6 | inactive |
| olf413 | 3 | 1.41e6 | 1.48e6 | 1.35e6 | 1.48e6 | inactive |
| olf413 | 4 | 1.40e6 | 1.56e6 | 1.31e6 | 1.42e6 | inactive |
| pav (pavarotti) | 1 | 1.48e6 | 1.41e6 | 1.05e6 | 1.09e6 | inactive |
| Toll-4 | 1 | 1.46e6 | 1.56e6 | 1.22e6 | 1.36e6 | inactive |
| Strica (Ser/Thr-rich caspase) | 1 | 1.71e6 | 1.67e6 | 1.42e6 | 1.44e6 | inactive |
| Cip4 (Cdc42-interacting protein 4) | 1 | 1.70e6 | 1.81e6 | 1.05e6 | 1.29e6 | inactive |
| Cip4 (Cdc42-interacting protein 4) | 2 | 1.38e6 | 1.45e6 | 1.24e6 | 1.20e6 | inactive |
| U3-55K (U3 small nuclear riboprotein factor 55K) | 1 | 1.58e6 | 1.61e6 | 1.32e6 | 1.42e6 | inactive |

Next part; the last 4 above are carried over.
| gene | reagent | Kc cell number, rep 1 | Kc cell number, rep 2 | S2R+ cell number, rep 1 | S2R+ cell number, rep 2 | Outcome |
| --- | --- | --- | --- | --- | --- | --- |
| Strica (Ser/Thr-rich caspase) | 1 | 1.71e6 | 1.67e6 | 1.42e6 | 1.44e6 | inactive |
| Cip4 (Cdc42-interacting protein 4) | 1 | 1.70e6 | 1.81e6 | 1.05e6 | 1.29e6 | inactive |
| Cip4 (Cdc42-interacting protein 4) | 2 | 1.38e6 | 1.45e6 | 1.24e6 | 1.20e6 | inactive |
| U3-55K (U3 small nuclear riboprotein factor 55K) | 1 | 1.58e6 | 1.61e6 | 1.32e6 | 1.42e6 | inactive |
| CG13123 | 1 | 1.74e6 | 1.86e6 | 1.40e6 | 1.62e6 | inactive |
| Vps28 (Vacuolar protein sorting 28) | 1 | 1.20e6 | 1.35e6 | 1.03e6 | 1.07e6 | inactive |
| mRpL20 (mitochondrial ribosomal protein L20) | 1 | 1.12e6 | 1.32e6 | 1.13e6 | 1.22e6 | inactive |
| CG12842 (retired record) | 1 | 1.53e6 | 1.55e6 | 1.26e6 | 1.37e6 | inactive |
| Ran | 1 | 1.44e6 | 1.43e6 | 6.86e5 | 8.12e5 | inactive |
| Yif1 (Yip1-interacting factor 1) | 1 | 1.51e6 | 1.55e6 | 9.49e5 | 1.24e6 | inactive |
| l(2)37Cb (lethal (2) 37Cb) | 1 | 1.41e6 | 1.57e6 | 1.33e6 | 1.30e6 | inactive |
| Cpr76Ba (Cuticular protein 76Ba) | 1 | 1.31e6 | 1.36e6 | 1.21e6 | 1.37e6 | inactive |
| CG13229 | 1 | 1.59e6 | 1.60e6 | 1.21e6 | 1.37e6 | inactive |
| CG11726 | 1 | 1.70e6 | 1.74e6 | 1.53e6 | 1.60e6 | inactive |
| twit (target of wit) | 1 | 1.46e6 | 1.55e6 | 1.03e6 | 1.08e6 | inactive |
| rau | 1 | 1.31e6 | 1.32e6 | 5.59e5 | 6.55e5 | inactive |
| Pdk (Pyruvate dehydrogenase kinase) | 1 | 1.27e6 | 1.35e6 | 1.11e6 | 1.15e6 | inactive |
| obst-J (obstructor-J) | 1 | 1.43e6 | 1.43e6 | 1.37e6 | 1.44e6 | inactive |
| mthl13 (methuselah-like 13) | 1 | 1.46e6 | 1.47e6 | 1.02e6 | 1.13e6 | inactive |
| CG5946 | 1 | 1.46e6 | 1.58e6 | 1.24e6 | 1.32e6 | inactive |
| dpr7 (defective proboscis extension response 7) | 1 | 1.25e6 | 1.34e6 | 1.02e6 | 1.08e6 | inactive |
| CG32537 | 1 | 1.63e6 | 1.69e6 | 1.17e6 | 1.27e6 | inactive |
